The supplement of paper PMC5949888
± gives the standard deviation of the averaged measurements. Most values lie at the floor of the assay. Slopes are relative: functional sequences can read slightly below zero.

The substances below were run on Saccharomyces cerevisiae PS128 hsf1 delta, HSF1(1-493) fusion (assay: growth estimate (transactivation domain function in HSF1 fusion, heat-shock survival) (a.u. (slope of normalised read count over time)); higher = stronger growth at 37°C, i.e. more transactivation activity). Details: library: random library.
GFMFTRNAHAPPVIDESIIP was tested, and the growth estimate was < -0.25. With LRRGTSKANPTDWFTSLAK the growth estimate was < -0.25. RPWLASGF was tested, and the growth estimate was < -0.25. GTDLRLCVWNWFTHDTHSSA was tested, and the growth estimate was < -0.25. For QLSWYCGGSVIFADWPVPAS, the growth estimate was < -0.25. For VSADPDAPSDVRFKAEVNDD, the growth estimate was < -0.25. RNQKSGPRGCISCEFPNWCS was tested, and the growth estimate was < -0.25. For GLRCSVPGTGSGLSVEGHGS, the growth estimate was < -0.25. With AEDSYSHTDGKVKPGTWGVV the growth estimate was < -0.25. With SPGMETVARLWRDPVHGGAS the growth estimate was < -0.25. With VAMSVAPWKKTLRAASFELQ the growth estimate was < -0.25. In the case of VAQARRPR, the growth estimate is reported as -0.246. In the case of CGN, the growth estimate is reported as < -0.25. In the case of SNGSRSWCVVSDKP, the growth estimate is reported as < -0.25. For SGGYDAAYPLYPAACLFRLP, the growth estimate was < -0.25. With DLKGRKALFKHGANPVSPRK the growth estimate was < -0.25. With TADMISQRIRRIAEV the growth estimate was < -0.25. With RWSL the growth estimate was < -0.25. Work on YELWEHYRCGP yielded a growth estimate of -0.226. In the case of RVGCEWTLWG, the growth estimate is reported as < -0.25. In the case of KNKLRSSKSALSHLVA, the growth estimate is reported as < -0.25. With NPKL the growth estimate was < -0.25. With RVRAIIREIRCWDIESSRQF the growth estimate was < -0.25. For DKF, the growth estimate was < -0.25. For PLTCTLVERDTPGCKDPPVN, the growth estimate was < -0.25. With WHEITHRNARVLPGRIPQIG the growth estimate was < -0.25. For IPSTLTHS, the growth estimate was < -0.25. With GEAFQ the growth estimate was < -0.25. In the case of LFLASDQP, the growth estimate is reported as < -0.25. ARREYLNRGYPWV was tested, and the growth estimate was < -0.25. In the case of PIF, the growth estimate is reported as < -0.25. In the case of VYRLGRATSTYAAKAGICVG, the growth estimate is reported as < -0.25. For HQNKAGQRGLSLVGLVSSSP, the growth estimate was < -0.25. With DDFT the growth estimate was < -0.25. For FNLVRFKLKLEQQIGDKIPL, the growth estimate was < -0.25. For PGCSHGRGCRPTATL, the growth estimate was < -0.25. With TEWNHPAGRPRRSLVACLQE the growth estimate was < -0.25. YSLRVKISMMRDMPIIV was tested, and the growth estimate was < -0.25. In the case of GDLPSRYNVRVSSPIVLFSK, the growth estimate is reported as < -0.25. In the case of VLISVGVKSKR, the growth estimate is reported as < -0.25. With ASKLS the growth estimate was < -0.25. With CKKAILCPIASAILEKRGGD the growth estimate was < -0.25. With RPRANRRG the growth estimate was < -0.25. IGRRLGPGVSLVAAPIGCIT was tested, and the growth estimate was < -0.25. In the case of RSRE, the growth estimate is reported as < -0.25. In the case of LYTSPCCRTYRSIQLIVPER, the growth estimate is reported as < -0.25. In the case of TSSLELIG, the growth estimate is reported as < -0.25. Substance LRR has a growth estimate of -0.2491 ± 0.0021. LAICYIPSAYKRGLCVQSHF was tested, and the growth estimate was < -0.25. In the case of SCSK, the growth estimate is reported as < -0.25. With PILDCD the growth estimate was < -0.25. FLRSFILLFLWCGTKASLHG was tested, and the growth estimate was < -0.25. With EHALRDCDTGFEMRWSSSFA the growth estimate was < -0.25. With KLPPNLHCPTNRWSRPKISR the growth estimate was < -0.25. With RGAVGGRGSATGRRCGRNLS the growth estimate was < -0.25. For SDLRKPLPPDW, the growth estimate was < -0.25. For LSEQSGYECLREIR, the growth estimate was < -0.25. NTSRDLGRTASSLVSSHRFV was tested, and the growth estimate was < -0.25. In the case of IPSNTYS, the growth estimate is reported as < -0.25. With ISYAKRYSESR the growth estimate was < -0.25. With GVRGPVGCSIGATVAQGTGP the growth estimate was < -0.25. In the case of AGWFGRVCAYRPTRCVRNDP, the growth estimate is reported as < -0.25. In the case of DARLSSRWAYV, the growth estimate is reported as < -0.25. With NFSDVTGTQAWGGRLVPRQC the growth estimate was < -0.25. With VAWDCVCRKCIKEKFRSVDS the growth estimate was < -0.25. For SFPHAARQR, the growth estimate was < -0.25. With PHNHSYRCDQVRILMRLLFD the growth estimate was < -0.25. For ESAGLVSR, the growth estimate was < -0.25. With FRQRSVRPWACGLREGACQC the growth estimate was -0.214. RDPF was tested, and the growth estimate was < -0.25. RKRD was tested, and the growth estimate was -0.243. With WNLTGLRGSYPRHRRVKPSS the growth estimate was < -0.25. For SSRGGITRDET, the growth estimate was < -0.25. For QRHGATGGRAHNLRRHWL, the growth estimate was < -0.25. AVRIRGSLATSSLVE was tested, and the growth estimate was < -0.25. For SQYGMVMSRVFLSMVVL, the growth estimate was < -0.25. For RVQRTEPLLFYVFPMLPL, the growth estimate was < -0.25. For NGNMRGDRRSVATT, the growth estimate was < -0.25. CSADRVGNVRREAM was tested, and the growth estimate was < -0.25. With LRKTLQEFGRCSKEMSRGKY the growth estimate was < -0.25. With LIV the growth estimate was < -0.25. SGLRKGCVPVSN was tested, and the growth estimate was < -0.25. With NVRVRHNRKRIRYPCAASTA the growth estimate was < -0.25. With PEY the growth estimate was < -0.25. KTGLLGNYQSLSGVQRAKFT was tested, and the growth estimate was < -0.25. In the case of PRTDGVSVEEFLGMRYRRGV, the growth estimate is reported as < -0.25. With FDWCINVWRLKFNVCVGGSN the growth estimate was < -0.25. For GCRKFGRRAALTRMTMAVSC, the growth estimate was < -0.25. TLPKCCLYLNGIYITRAGRE was tested, and the growth estimate was < -0.25. In the case of FMSVRLDGAHRLFSFCPFWL, the growth estimate is reported as < -0.25. With LPRSYTVGASLELMS the growth estimate was < -0.25. With SLHEACHLKECRSLNRRVRW the growth estimate was < -0.25. TTRAESAL was tested, and the growth estimate was < -0.25. RFVKYTVVEPRGLRVRGS gave a growth estimate of -0.245. In the case of RKEYP, the growth estimate is reported as < -0.25. For SITVRVVV, the growth estimate was -0.239. In the case of ADSSTE, the growth estimate is reported as < -0.25. With RATRAARNTGSG the growth estimate was < -0.25. In the case of GATAPDLCWKPLWAANQYPC, the growth estimate is reported as < -0.25. STTEGECDFPDHLLALRPSP was tested, and the growth estimate was < -0.25. PQTASWLARKRS was tested, and the growth estimate was < -0.25. LVNLGDRYLAHLGAVVSVFV was tested, and the growth estimate was < -0.25. For NVYARSNTSCNSSA, the growth estimate was < -0.25. With TLRVRRRVARSVCEGGSCGA the growth estimate was < -0.25. In the case of PTTIRCMACIWIGGI, the growth estimate is reported as < -0.25. For YSLTADLRVETLCEACCGDV, the growth estimate was < -0.25. IGNTQILSCSVRGSLSVSFR was tested, and the growth estimate was < -0.25. With RKDHEQPQGRGIGAAVPSSL the growth estimate was < -0.25. For LKDGQAKIRCWLSLGPCIYT, the growth estimate was < -0.25. EGTWC was tested, and the growth estimate was < -0.25. TGEEATDRICVCPSLTGMDF was tested, and the growth estimate was < -0.25. With YMG the growth estimate was < -0.25. RKRSIAGLVLIIAICVVSSG was tested, and the growth estimate was < -0.25. In the case of TPNDRRAPNDMVLRSVRVLG, the growth estimate is reported as < -0.25. For VSHRNLLNWPSAVSFIRYNC, the growth estimate was < -0.25. For GMASSWLCPTSDRQW, the growth estimate was < -0.25. In the case of SLQGPGIRT, the growth estimate is reported as < -0.25. In the case of DPDGGQSVW, the growth estimate is reported as < -0.25. In the case of VTLNRD, the growth estimate is reported as < -0.25. IWAILIQAVANKLVCRLSSC showed a growth estimate of 0.133. TSPRM was tested, and the growth estimate was < -0.25. LWLQPVRMWLTKTS was tested, and the growth estimate was < -0.25. With PTLADSGHMA the growth estimate was < -0.25. In the case of DTVPDPA, the growth estimate is reported as < -0.25. GSRACICITNRRDQLEGTHC was tested, and the growth estimate was < -0.25. In the case of YITETRRGSGLRT, the growth estimate is reported as < -0.25. For GPQVSRPIG, the growth estimate was < -0.25. In the case of RFLPWYHCTVEQ, the growth estimate is reported as < -0.25. MMVGPD was tested, and the growth estimate was < -0.25. With TLFTNRSGRGSYSLKSSLLC the growth estimate was < -0.25. In the case of GDIFRDGNHF, the growth estimate is reported as < -0.25. With ECCQLLR the growth estimate was < -0.25. SVRRGRRLLNVFRLSLRAHG was tested, and the growth estimate was < -0.25. In the case of IHSFHADALGRP, the growth estimate is reported as < -0.25. For LCFALSKRRTQFLAPEFNSL, the growth estimate was < -0.25. WWWGSTSGVDKDGYVKSILP was tested, and the growth estimate was < -0.25. In the case of LDLGNVDSGS, the growth estimate is reported as < -0.25. In the case of PLQGPR, the growth estimate is reported as -0.246. With NSSSLAQLNGVREYHLSGPF the growth estimate was < -0.25. NGHMDSNDSSAGWLPFSKRV was tested, and the growth estimate was < -0.25. With YMGIGYTSRQGRHNTGGGGS the growth estimate was < -0.25. With GVVPRITPGERTAVLAHSPE the growth estimate was < -0.25. In the case of FCHILPRFGPRLLHLSWI, the growth estimate is reported as < -0.25. SITRLCAPALWVLLC was tested, and the growth estimate was < -0.25. For TGAGTYGMFTSSTFVRASPH, the growth estimate was < -0.25. ESCVWRVARRRSSSLLIARA was tested, and the growth estimate was < -0.25. LERIRQPQISCAGTRCWTAF was tested, and the growth estimate was < -0.25. TEQSVMV was tested, and the growth estimate was < -0.25. For LPGLMVSPRALPRDQHLPLR, the growth estimate was < -0.25. In the case of KSNRGLQGRTPW, the growth estimate is reported as < -0.25. With LDVLVRGC the growth estimate was < -0.25. Substance LQQP has a growth estimate of -0.231. With GREH the growth estimate was < -0.25. In the case of DLRVVVSRYQVKV, the growth estimate is reported as < -0.25. VGYGCGGFD was tested, and the growth estimate was < -0.25. TRARGMRPERPGCNNGSRGG was tested, and the growth estimate was < -0.25. For CRKVNRYGFRGFK, the growth estimate was < -0.25. For CSCVGIPNGLGGNFVLPTSR, the growth estimate was < -0.25. For VLLTLTSGMIL, the growth estimate was < -0.25.
